This assay addresses human Pannexin1 wild type with C-terminal eGFP and 8x His-tag (FSEC sample) (human) (UniProt Q96RD7). Briefly: SEC. A general note: Size exclusion chromatography separates by hydrodynamic size, large species first.

By UniProt entry, the sequences of proteins in these tests, tags left out.
UniProt Q96RD7, whole entry: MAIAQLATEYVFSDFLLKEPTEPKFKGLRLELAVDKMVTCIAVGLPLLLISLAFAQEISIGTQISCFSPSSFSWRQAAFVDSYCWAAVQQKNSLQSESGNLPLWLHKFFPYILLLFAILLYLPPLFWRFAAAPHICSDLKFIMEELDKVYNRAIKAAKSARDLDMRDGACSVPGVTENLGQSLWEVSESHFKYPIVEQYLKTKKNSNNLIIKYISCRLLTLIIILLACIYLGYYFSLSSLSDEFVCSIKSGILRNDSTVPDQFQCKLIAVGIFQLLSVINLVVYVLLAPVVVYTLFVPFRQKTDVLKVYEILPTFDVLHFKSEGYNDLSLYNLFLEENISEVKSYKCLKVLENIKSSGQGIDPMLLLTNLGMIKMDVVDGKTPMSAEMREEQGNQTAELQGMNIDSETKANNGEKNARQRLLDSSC

No constants are given. Whether binding was seen depends on the method and setting. Some entries that bind do so weakly or less than the wild type.

Regarding “human Pannexin1 wild type with C-terminal eGFP and 8x His-tag (FSEC sample) (from UniProt Q96RD7)”, the binding result is reported as “binds”.

The record behind these values is paper doi:10.1101/2022.09.09.507385 (bioRxiv, 2022).
